PubChem BioAssay AID1259424 | University of Nebraska Medical Center, 2018

Assay: 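Find knockdowns that reproduce the expression shifts seen after KSR1 loss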 (primary screen)
Cells: human HCT116 colon cancer cells
Reagent: siRNA pool against human genes, 50 nM
Detection: 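Six signature mRNAs by branched-DNA multiplex assay, scaled to two housekeeping genes and non-targeting median, log2; matched to mean KSR1 knockdown profile by Pearson correlation and euclidean distance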
Reading the numbers: mean correlation with KSR1 profile and KSR1 correlation: higher = expression change more like KSR1 knockdown; mean distance from KSR1 profile: higher = expression change less like KSR1 knockdown
In all, the deposit lists about 14,000 reagents; below is a random part of them. 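Higher correlation or smaller distance means closer resemblance to KSR1 loss; control wells, including KSR1 knockdowns, recur on many plates.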 The record does not give: the time to read-out.

gene	mean correlation with KSR1 profile	mean distance from KSR1 profile	KSR1 correlation, replicate 1	KSR1 correlation, replicate 2	KSR1 correlation, replicate 3
PPP1R3D	-0.0759	2.77	0.0321	-0.347	-0.031
TMPO	-0.331	2.15	0.00123	-0.578	-0.408
LPCAT3	-0.169	2.21	-0.188	-0.13	-0.118
TKTL2	0.875	0.906	0.565	0.88	0.924
LRRC59	-0.438	3.41	-0.333	-0.647	-0.221
TTN	0.041	1.98	0.23	0.0181	-0.223
R3HCC1L	-0.271	1.41	-0.648	-0.452	-0.453
SMG8	0.0163	2.33	-0.00898	-0.103	-0.03
METAP2	-0.554	2.11	-0.451	-0.679	-0.247
CYP2C9	-0.345	1.77	-0.568	-0.307	0.0413
MRPS18A	-0.13	2.74	-0.0573	-0.224	-0.0924
ATRX	0.217	1.7	0.202	0.218	0.0731
NOS1	0.702	0.913	0.664	0.407	0.788
NDUFB11	-0.564	1.42	-0.532	-0.505	-0.65
TP53INP1	0.324	1.46	0.361	0.323	0.23
ADAM3A	-0.344	1.42	-0.455	-0.162	-0.479
SNRPN	0.399	2.12	0.278	0.417	0.253
HSD17B7	0.14	1.89	0.281	-0.0981	0.114
RPE65	0.916	1.03	0.87	0.783	0.5
KCNC3	-0.216	2.76	-0.26	-0.336	-0.0332
PLXDC2	0.59	2.25	0.206	0.267	0.884
HCN2	0.635	1.55	0.425	0.639	0.787
ZHX1	-0.361	3.74	-0.0587	0.0861	-0.0672
POGLUT1	-0.429	5.52	-0.561	-0.148	-0.333
ZNF154	-0.355	1.79	-0.205	-0.249	-0.659
WWP1	0.418	1.13	0.157	0.327	0.531

Part of the list above, reformatted:
gene,mean correlation with KSR1 profile,mean distance from KSR1 profile,"KSR1 correlation, replicate 1","KSR1 correlation, replicate 2","KSR1 correlation, replicate 3"
CYP2C9,-0.345,1.77,-0.568,-0.307,0.0413
MRPS18A,-0.13,2.74,-0.0573,-0.224,-0.0924
ATRX,0.217,1.7,0.202,0.218,0.0731
NOS1,0.702,0.913,0.664,0.407,0.788
NDUFB11,-0.564,1.42,-0.532,-0.505,-0.65
TP53INP1,0.324,1.46,0.361,0.323,0.23

The listing continues:
gene	mean correlation with KSR1 profile	mean distance from KSR1 profile	KSR1 correlation, replicate 1	KSR1 correlation, replicate 2	KSR1 correlation, replicate 3
NMT1	0.0368	1.35	0.339	-0.394	0.308
ITK	-0.157	2.08	-0.231	0.0931	-0.204
RNF114	0.273	1.82	0.135	0.0793	0.436
ASL	0.416	1.28	0.267	0.411	0.505
SECISBP2	-0.753	1.94	-0.586	-0.725	-0.69
THAP4	-0.377	1.94	-0.474	-0.402	-0.143
GPR25	0.715	1.56	0.588	0.764	0.694
PPP1R13B	0.134	1.31	0.117	0.198	-0.248
SLC71A3P	0.669	1.6	0.526	0.661	0.682
LY6G6E	-0.427	2.44	-0.438	-0.359	-0.543
TSNAXIP1	-0.00111	1.01	0.317	-0.38	-0.224
GSE1	-0.463	3.51	-0.353	-0.542	-0.514
KCNK1	0.195	2.63	0.0573	0.178	0.196
PRPF38A	0.683	4.08	0.689	0.588	0.33
CLN6	-0.355	2.27	-0.401	-0.37	-0.536
SLC35D1	-0.157	1.19	-0.561	-0.318	0.256
MAGED4B	0.53	1.76	0.502	0.401	0.634
VAMP3	0.0349	1.55	-0.295	0.356	0.135
TIPARP	0.672	0.964	0.482	0.423	0.685
ME2	0.0611	1.72	-0.449	0.296	-0.0298
HERC3	-0.436	2.25	-0.386	-0.289	-0.639
VCAN	0.721	1.33	0.697	0.705	0.826
TUBG2	-0.0159	2.14	-0.219	0.0765	-0.0313
SIPA1	0.787	0.756	0.911	0.881	0.591
